Reference: PMC11923920
No constants are given. Whether binding was seen depends on the method and setting. In cells and extracts the contact can be indirect. Some entries that bind do so weakly or less than the wild type. For part of these data: Tags and fused reporters may be left off the sequences shown.

Protein sequences, listed by entry. Tags and fused reporters are not part of them.
UniProt Q99836: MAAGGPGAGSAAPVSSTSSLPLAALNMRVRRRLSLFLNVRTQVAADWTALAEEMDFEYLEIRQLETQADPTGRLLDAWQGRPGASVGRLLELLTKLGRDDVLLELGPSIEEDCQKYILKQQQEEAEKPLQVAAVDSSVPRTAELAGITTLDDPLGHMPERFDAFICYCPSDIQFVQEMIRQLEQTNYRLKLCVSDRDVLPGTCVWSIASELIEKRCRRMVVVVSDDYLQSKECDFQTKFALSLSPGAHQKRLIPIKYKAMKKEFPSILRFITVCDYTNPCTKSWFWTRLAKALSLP

B1: OTUD4 N-terminal domain (aa 1-155) (domain or fragment, UniProt Q01804 1-155)
chain: MEAAVGVPDGGDQGGAGPREDATPMDAYLRKLGLYRKLVAKDGSCLFRAVAEQVLHSQSRHVEVRMACIHYLRENREKFEAFIEGSFEEYLKRLENPQEWVGQVEISALSLMYRKDFIIYREPNVSPSQVTENNFPEKVLLCFSNGNHYDIVYPI

Columns and labels:
[1] = target: T1, OTUD4 N-terminal domain (aa 1-155) (UniProt Q01804); experiment: co-IP; MYD88 with truncated OTUD4 (Figure S5E); cell line not stated
T1 sequence: B1 chain

[2] = target: T2, Myc-tagged OTUD4, full length (UniProt Q01804); experiment: co-IP; competitive binding co-IP: MYD88 pulled down by OTUD4 with increasing SPARC expression (Figure S5F); cell line not stated
T2 sequence: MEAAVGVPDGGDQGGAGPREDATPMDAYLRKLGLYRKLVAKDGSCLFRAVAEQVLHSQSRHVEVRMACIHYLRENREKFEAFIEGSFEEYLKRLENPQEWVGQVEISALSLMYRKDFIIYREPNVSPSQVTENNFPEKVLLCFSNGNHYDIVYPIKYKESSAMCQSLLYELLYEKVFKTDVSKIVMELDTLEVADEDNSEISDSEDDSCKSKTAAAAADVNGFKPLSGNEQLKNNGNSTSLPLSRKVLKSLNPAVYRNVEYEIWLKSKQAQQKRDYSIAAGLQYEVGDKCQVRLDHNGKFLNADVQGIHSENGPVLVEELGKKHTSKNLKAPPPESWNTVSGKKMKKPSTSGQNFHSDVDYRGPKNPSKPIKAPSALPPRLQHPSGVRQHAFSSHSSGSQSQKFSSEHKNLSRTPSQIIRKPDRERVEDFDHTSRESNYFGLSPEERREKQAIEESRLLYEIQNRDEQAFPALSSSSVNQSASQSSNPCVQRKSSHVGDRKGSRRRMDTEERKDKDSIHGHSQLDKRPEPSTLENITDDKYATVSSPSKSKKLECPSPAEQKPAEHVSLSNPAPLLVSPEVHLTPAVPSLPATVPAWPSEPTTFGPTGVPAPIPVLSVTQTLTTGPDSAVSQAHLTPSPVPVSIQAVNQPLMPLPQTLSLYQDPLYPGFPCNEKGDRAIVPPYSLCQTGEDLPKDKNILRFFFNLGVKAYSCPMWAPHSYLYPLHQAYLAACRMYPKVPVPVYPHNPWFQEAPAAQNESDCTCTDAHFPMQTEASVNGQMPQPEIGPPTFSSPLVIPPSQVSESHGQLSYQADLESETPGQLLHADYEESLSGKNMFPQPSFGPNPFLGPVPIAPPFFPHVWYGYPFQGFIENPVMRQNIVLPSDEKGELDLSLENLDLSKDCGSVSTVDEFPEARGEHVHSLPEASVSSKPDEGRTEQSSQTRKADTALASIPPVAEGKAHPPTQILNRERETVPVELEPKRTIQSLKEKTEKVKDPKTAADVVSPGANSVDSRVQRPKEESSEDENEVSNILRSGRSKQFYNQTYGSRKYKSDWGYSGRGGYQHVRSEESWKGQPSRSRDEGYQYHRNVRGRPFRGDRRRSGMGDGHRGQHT

[3] = target: T3, Flag-tagged SPARC (secreted protein acidic and cysteine-rich), full length (1-303) (UniProt P09486); experiment: co-IP; Caco-2 cells co-transfected with SPARC-Flag and OTUD4-Myc plasmids (full length and truncated), IP lysis buffer, lysates with magnetic beads overnight at 4 °C, washed 5 times with TBS, western blot
T3 sequence: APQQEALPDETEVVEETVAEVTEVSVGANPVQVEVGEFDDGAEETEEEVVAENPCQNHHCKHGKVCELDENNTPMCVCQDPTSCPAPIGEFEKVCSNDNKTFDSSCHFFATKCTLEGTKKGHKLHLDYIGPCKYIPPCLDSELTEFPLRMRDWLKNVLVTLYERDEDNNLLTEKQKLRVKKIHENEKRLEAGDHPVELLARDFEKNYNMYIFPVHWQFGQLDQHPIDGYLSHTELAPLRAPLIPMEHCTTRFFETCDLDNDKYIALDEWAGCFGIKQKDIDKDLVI

Row | Molecule | binding [1] | binding [2] | binding [3]
1 | His-tagged MYD88 (from UniProt Q99836 1-296) | binds | binds | –
2 | B1 | – | – | binds
